# Structures were worked out from names or drawings and are uncertain.
# The chains behind the UniProt entries cited, without tags or fusion partners. Residues count along the entry.
# UniProt Q9NRM0, 1-511 isoform 2: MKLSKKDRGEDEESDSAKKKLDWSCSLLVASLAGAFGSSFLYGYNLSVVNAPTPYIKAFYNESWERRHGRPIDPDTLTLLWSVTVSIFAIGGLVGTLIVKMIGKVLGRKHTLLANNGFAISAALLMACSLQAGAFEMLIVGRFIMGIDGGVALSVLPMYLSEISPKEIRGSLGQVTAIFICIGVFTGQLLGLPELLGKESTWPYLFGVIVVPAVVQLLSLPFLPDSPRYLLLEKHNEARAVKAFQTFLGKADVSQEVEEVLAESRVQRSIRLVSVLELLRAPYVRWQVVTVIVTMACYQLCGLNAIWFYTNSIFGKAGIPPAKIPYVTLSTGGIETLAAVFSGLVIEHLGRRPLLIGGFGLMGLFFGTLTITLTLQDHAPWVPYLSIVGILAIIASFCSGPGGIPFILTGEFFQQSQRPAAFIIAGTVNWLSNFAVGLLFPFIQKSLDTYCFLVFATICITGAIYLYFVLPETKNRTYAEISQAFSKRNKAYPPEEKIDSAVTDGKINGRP
# Molecular target: H. sapiens SLC2A9 variant 2 (GLUT9B) (Homo sapiens, UniProt Q9NRM0)
# Assay: GLUT9 functional assay: uric acid uptake in HEK293T cells, allantoin formation by MS/MS as proxy of GLUT9B inhibition
# Settings: read-out: 60 min IC50; 60 minute assay; HEK293T cells stably expressing GLUT9B and transiently A. oryzae uricase; uric acid 0.3 mM, 37° C.
# Procedure: Uric acid stocks (9 mM, Millipore-Sigma, U0881) were generated in 125 mM choline chloride (Millipore-Sigma, C7017) and the concentration was determined at 293 nm using a molar extinction coefficient of 9600 M- ^1 cm- ^1) after collecting the absorbance spectra from 220-350 nm. Allantoin stocks (12 mM Toronto Research Chemicals, A540500) were generated in LCMS grade water (Thermo Scientific, 51140). The concentration of allantoin was determined by qNMR (Michigan State University). HEK293T cells were purchased from ATCC (HEK 293T/17 SF). Hanks buffered saline salts (HBSS) was purchased from Millipore-Sigma (H6648-1L). […]
# Uric acid uptake was measured in HEK293T cells stably expressing H. sapiens SLC2A9 variant 2 (GLUT9B) and transiently expressing A. oryzae uricase. […] Allantoin was detected in positive ion mode. Desired analyte concentrations were quantitated by integrating the area under the curve followed by a log-logistic regression model and data compared to a standard curve prepared in a matching HEK293T biological matrix.
# Mass spectrometry measurement of allantoin was completed using an Agilent RapidFire 300 coupled to a Sciex API 4000 mass spectrometer. […] Allantoin was detected in positive ion mode with the following compound ID settings: Q1 159, Q3 115.8, DP 57, CE 12.5 Dwell 100 ms. […]
structure (smiles),measurement,value
"COCCCc1cnc(-c2ccc3c(c2)COC3=O)c(N2CCC(C(=O)O)CC2)c1 [Compound 232, 1-(5-(3-methoxypropyl)-2-(1-oxo-1,3-dihydroisobenzofuran-5-yl)pyridin-3-yl)piperidine-4-carboxylic acid]",IC50,> 2000 nM

# From US20250179032A1, “HETEROCYCLIC INHIBITORS OF GLUT9 FOR TREATMENT OF DISEASE” (HORIZON THERAPEUTICS IRELAND DAC, priority 2022, published 2025)
